These are yes or no findings as the source states them, for the method shown. Some binding calls cover weakened binding; strength is not graded here.
Legend:
Assay in all cases: flow cytometry, GS-CHO cells with CD73 mutant
[1] = target: T1, CD73 mutant K179A/E180A (human) (UniProt P21589)
T1 sequence: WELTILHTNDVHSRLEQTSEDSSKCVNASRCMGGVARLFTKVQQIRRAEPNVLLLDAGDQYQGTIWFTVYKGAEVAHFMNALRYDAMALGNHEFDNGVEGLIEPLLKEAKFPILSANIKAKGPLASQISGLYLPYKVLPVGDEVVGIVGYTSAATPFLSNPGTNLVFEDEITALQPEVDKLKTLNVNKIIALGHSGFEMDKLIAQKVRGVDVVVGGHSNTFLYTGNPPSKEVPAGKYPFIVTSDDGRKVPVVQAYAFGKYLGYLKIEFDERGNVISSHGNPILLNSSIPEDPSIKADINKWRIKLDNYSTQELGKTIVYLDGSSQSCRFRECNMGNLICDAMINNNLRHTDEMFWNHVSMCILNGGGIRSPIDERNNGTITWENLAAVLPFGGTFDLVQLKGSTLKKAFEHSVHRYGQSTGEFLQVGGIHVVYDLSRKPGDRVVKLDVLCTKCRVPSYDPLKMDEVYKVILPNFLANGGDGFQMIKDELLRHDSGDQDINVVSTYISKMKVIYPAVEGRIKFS

[2] = target: T2, CD73 mutant K291A/E293A (human) (UniProt P21589)
T2 sequence: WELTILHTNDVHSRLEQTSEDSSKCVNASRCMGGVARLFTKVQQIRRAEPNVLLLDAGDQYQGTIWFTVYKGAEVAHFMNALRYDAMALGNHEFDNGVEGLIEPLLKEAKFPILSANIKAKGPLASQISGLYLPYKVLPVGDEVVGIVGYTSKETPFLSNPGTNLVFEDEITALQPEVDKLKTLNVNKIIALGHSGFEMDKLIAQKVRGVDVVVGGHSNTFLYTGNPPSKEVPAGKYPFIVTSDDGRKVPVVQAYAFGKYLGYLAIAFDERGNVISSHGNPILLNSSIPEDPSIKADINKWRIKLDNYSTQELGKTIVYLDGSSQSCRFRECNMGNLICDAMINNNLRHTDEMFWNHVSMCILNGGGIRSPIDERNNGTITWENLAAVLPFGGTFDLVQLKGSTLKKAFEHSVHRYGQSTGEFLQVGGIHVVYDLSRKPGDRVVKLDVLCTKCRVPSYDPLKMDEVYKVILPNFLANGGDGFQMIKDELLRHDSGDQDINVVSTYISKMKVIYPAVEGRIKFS

[3] = target: T3, CD73 mutant S152A/Q153A (human) (UniProt P21589)
T3 sequence: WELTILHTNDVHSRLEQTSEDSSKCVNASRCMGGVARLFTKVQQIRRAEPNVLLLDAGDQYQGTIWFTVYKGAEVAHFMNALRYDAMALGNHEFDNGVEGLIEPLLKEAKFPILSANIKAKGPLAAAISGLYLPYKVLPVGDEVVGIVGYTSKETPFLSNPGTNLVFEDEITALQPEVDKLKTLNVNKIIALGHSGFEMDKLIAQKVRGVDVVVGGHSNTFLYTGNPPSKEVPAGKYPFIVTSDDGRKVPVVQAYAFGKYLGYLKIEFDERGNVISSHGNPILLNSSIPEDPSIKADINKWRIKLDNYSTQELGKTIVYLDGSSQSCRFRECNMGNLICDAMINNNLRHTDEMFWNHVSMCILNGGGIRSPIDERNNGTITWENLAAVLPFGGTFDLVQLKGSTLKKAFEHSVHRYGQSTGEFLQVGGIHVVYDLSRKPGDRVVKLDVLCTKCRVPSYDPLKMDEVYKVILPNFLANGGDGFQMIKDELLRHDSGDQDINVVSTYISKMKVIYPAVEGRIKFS

[4] = target: T4, CD73 mutant R109A/K136A (human) (UniProt P21589)
T4 sequence: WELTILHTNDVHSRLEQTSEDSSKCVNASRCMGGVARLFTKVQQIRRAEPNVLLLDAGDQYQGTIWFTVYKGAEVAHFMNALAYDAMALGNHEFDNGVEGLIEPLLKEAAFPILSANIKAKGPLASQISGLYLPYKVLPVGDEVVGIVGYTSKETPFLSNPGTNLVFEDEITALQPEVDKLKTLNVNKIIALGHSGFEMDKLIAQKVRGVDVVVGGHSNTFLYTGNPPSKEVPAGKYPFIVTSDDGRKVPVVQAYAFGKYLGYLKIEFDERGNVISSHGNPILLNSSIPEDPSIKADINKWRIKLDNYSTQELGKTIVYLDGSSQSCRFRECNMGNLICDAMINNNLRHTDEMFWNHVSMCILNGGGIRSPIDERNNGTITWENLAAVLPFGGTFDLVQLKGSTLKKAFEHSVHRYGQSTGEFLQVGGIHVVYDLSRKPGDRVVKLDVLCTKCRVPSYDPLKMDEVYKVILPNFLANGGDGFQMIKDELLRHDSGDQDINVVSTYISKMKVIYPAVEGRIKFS

[5] = target: T5, CD73 mutant E224A/K227A (human) (UniProt P21589)
T5 sequence: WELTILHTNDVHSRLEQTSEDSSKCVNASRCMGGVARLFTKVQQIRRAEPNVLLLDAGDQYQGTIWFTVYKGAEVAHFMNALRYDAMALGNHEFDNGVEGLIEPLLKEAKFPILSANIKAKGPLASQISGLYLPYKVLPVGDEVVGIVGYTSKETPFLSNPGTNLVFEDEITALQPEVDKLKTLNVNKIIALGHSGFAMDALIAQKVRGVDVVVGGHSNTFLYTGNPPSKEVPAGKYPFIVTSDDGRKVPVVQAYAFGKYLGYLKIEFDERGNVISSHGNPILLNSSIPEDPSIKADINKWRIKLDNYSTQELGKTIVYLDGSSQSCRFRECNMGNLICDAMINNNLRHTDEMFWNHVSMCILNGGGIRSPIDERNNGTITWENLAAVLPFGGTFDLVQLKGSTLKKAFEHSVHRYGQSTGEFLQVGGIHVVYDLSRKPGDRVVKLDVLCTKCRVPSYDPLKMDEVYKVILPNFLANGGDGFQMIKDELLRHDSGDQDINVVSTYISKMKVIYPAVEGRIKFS

Measured: binding

B1: ADI-37505 (antibody, human IgG4 S228P, kappa, F234A L235A, V domains shown)
VH: QVQLVESGGGLVQPGGSLRLSCAASGFTFSNYAMTWVRQAPGKGLEWVSAISGRGTATYYADSVKGRFTISRDNSKNTLYLQMNSLRAEDTAVYYCARGGPYGSGSYWDTFDYWGQGTLVTVSS
VL: EIVMTQSPATLSVSPGERATLSCRASQSVSSNLAWYQQKPGQAPRLLIYGASTRATGIPARFSGSGSGTEFTLTISSLQSEDFAVYYCQQYTNHYTFGGGTKVEIKR
binds: all assays above

B2: ADI-37506 (antibody, human IgG4 S228P, kappa, F234A L235A, V domains shown)
VH: EVQLLESGGGLVQPGGSLRLSCAASGFTFSNLAMSWVRQAPGKGLEWVSAISGRATSTYYADSVKGRFTISRDNSKNTLYLQMNSLRAEDTAVYYCARGGPYGSGSYWDTFDYWGQGTLVTVSS
VL: EIVMTQSPATLSVSPGERATLSCRASQSVSSNLAWYQQKPGQAPRLLIYGASTRATGIPARFSGSGSGTEFTLTISSLQSEDFAVYYCQQYTNHYTFGGGTKVEIKR
binds: all assays above

Reference: patent US20230312741A1
